Measurements: PubChem BioAssay AID540303 (National Center for Advancing Translational Sciences (NCATS), 2011)
In all, about 330,000 compounds went through this assay and about 1,000 (0.3%) were called active. The shares of active, inactive and inconclusive entries below differ from those in the screen. Calls follow the shape of the dose curve; as a rule, active = well fitted inhibition curve with a large enough effect; inconclusive = small, poorly fitted or top-dose-only effect; inactive = no such curve, though single readings can be large or run the other way; tested in mouse RAW 264.7 cells. Potencies beside an inconclusive call are fits to weak or partial responses and may not hold up.

Assay: qHTS for Inhibitors of Cell Surface uPA Generation; also: nearly all actives have a fitted effect of over 55% in size
Details: cell surface uPA generation assay; series mostly up to 38.3 µM; activity change, negative = inhibition: at the top concentration
Summary of the method: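 Murine RAW 264.7 cells are treated for 24 h with compound up to 38.3 uM final. Cell ATP, measured by ATP-Lite, remains high if blocking the uPA cascade prevents LF from reaching the cytoplasm.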
% is scaled to controls: 0 for no effect and ±100 for the full control effect; potency is read from the fitted curve at half-maximal effect.

SMILES	Potency	activity change, negative = inhibition
O=C(NCCNc1ccccc1[N+](=O)[O-])c1ccccc1F	inconclusive: 10 µM [inhibitor, partial curve, poor fit]	
Nc1c(C(=O)CSc2nnc(-c3ccccc3F)o2)c(=O)[nH]c(=O)n1C1CC1	inconclusive: 5.62 µM [inhibitor, partial curve, poor fit]	
COc1ccc(O)c(/C=N/NC(=O)c2cc(=O)[nH]c3ccccc23)c1	inconclusive: 12.6 µM [inhibitor, single point]	
COc1ccc(NS(=O)(=O)c2cccc(C(=O)N/N=C/c3c(F)c(F)c(F)c(F)c3F)c2)cc1	inconclusive: 10 µM [inhibitor, partial curve, poor fit]	
COc1cc(CNCc2cccc(OC)c2OC)cc(OC)c1	inconclusive: 0.316 µM [inhibitor, full curve, poor fit]	
COc1ccc(NC(=O)/C(C#N)=C/c2ccc(Sc3nncn3C)c([N+](=O)[O-])c2)cc1		inactive: -11.2%
CCC(C)OC(=O)c1[nH]c2c(c1C)C(=O)CC(c1ccc(N(C)C)cc1)C2 (stereo not given)	active: 10 µM	
CC(C)C[C@H]1CN=C(Nc2ccccc2)N1CCc1ccc(F)cc1	inconclusive: 10 µM [inhibitor, single point]	
CC[C@]12c3[nH]c4cc(-c5ccco5)ccc4c3CCN1C(=O)[C@@H](CC(=O)NCCC1=CCCCC1)C[C@@H]2C(=O)N1CCN(C(=O)C2CC2)CC1	inconclusive: 28.2 µM [inhibitor, single point]	
C=CCNC(=O)c1ccc2c3n(nc2c1)-c1ccc(C)cc1CO3	inconclusive: 7.94 µM [inhibitor, partial curve, poor fit]	
Cc1ccc(-n2nc3ccc(N)cc3n2)cc1C	inconclusive: 11.2 µM [inhibitor, partial curve, poor fit]	
COc1ccc(-c2csc(NC3OC(=O)c4ccccc43)n2)cc1 (stereo not given)	inconclusive: 7.94 µM [inhibitor, partial curve, poor fit]	
Cc1cc(NC(=O)COC(=O)[C@@H](NS(=O)(=O)c2ccccc2)C(C)C)no1	inconclusive: 0.355 µM [inhibitor, full curve, poor fit]	
COc1ccc2nc(NC(=O)CSc3nnc(C)n3N)sc2c1	inconclusive: 10 µM [inhibitor, partial curve]	
CCc1ccccc1N(C)S(=O)(=O)c1ccc(-c2cc(C)no2)s1	inconclusive: 0.891 µM [inhibitor, partial curve, poor fit]	
COc1cccc(OC)c1C(=O)Nc1ccc2nc(C)c(C)nc2c1		inactive: 1.58%
O=C(/C=C/c1ccco1)NC(=S)Nc1ccccn1		inactive: -3.07%
N#C/C(=C\c1cccc(O)c1)C(=O)Nc1ccc2c(c1)OCCO2	inconclusive: 12.6 µM [inhibitor, single point]	
CC(=O)c1c(C)n(-c2ccccc2)c2ccc(O)cc12		inactive: -3.14%
CC(C)OC(=O)c1cccc2c1C(=O)c1ccccc1-2		inactive: -4.93%
c1ccc2cc3c(NCCN4CCOCC4)ccnc3cc2c1	inconclusive: 12.6 µM [inhibitor, single point]	
COc1ccccc1/C=C/C(=O)Nc1ccc2c(c1)OCCO2	active: 3.98 µM	

A draw from above in order of molar mass, smallest number first.
SMILES	Potency	activity change, negative = inhibition
Cc1ccc(-n2nc3ccc(N)cc3n2)cc1C	inconclusive: 11.2 µM [inhibitor, partial curve, poor fit]	
C=CCNC(=O)c1ccc2c3n(nc2c1)-c1ccc(C)cc1CO3	inconclusive: 7.94 µM [inhibitor, partial curve, poor fit]	
CCC(C)OC(=O)c1[nH]c2c(c1C)C(=O)CC(c1ccc(N(C)C)cc1)C2 (stereo not given)	active: 10 µM	
Cc1cc(NC(=O)COC(=O)[C@@H](NS(=O)(=O)c2ccccc2)C(C)C)no1	inconclusive: 0.355 µM [inhibitor, full curve, poor fit]	

Next entries

SMILES	Potency	activity change, negative = inhibition
O=C(Nc1ccc2nc3n(c(=O)c2c1)CCCCC3)c1ccccn1	inconclusive: 5.62 µM [inhibitor, full curve, poor fit]	
O=C(CN1CCN(c2ccccc2O)CC1)Nc1ccnn1C1CCCC1	inconclusive: 3.16 µM [inhibitor, partial curve, poor fit]	
CC#CC[N+](C)(C)CCCCCCCC		inactive: -10.1%
CC(C)(C)NC(=O)/C=C/c1cccs1	inconclusive: 2.51 µM [inhibitor, full curve, poor fit]	
O=C1OC(c2ccccc2)/C(=C(/O)c2ccc(Cl)cc2)C1=O (stereo not given)		inactive: 5.27%
CCC(C)NC(=O)/C=C1\Sc2ccccc2NC1=O (stereo not given)	inconclusive: 12.6 µM [inhibitor, partial curve, poor fit]	
c1ccc2[nH]c(CN3CCOCC3)nc2c1	inconclusive: 0.0032 µM [inhibitor, full curve, poor fit]	
Cc1ccc2c(c1)NC(=O)C(CC(=O)NCCCN1CCN(c3cc(C)ccc3C)CC1)O2 (stereo not given)	inconclusive: 20 µM [inhibitor, single point]	
Nc1nc(COC(=O)C2CC(=O)N(CCc3ccccc3)C2)nc(Nc2ccccc2)n1 (stereo not given)	inconclusive: 2.24 µM [inhibitor, full curve, poor fit]	
CCOC(=O)C1CCCN(c2cc(=O)n(-c3ccccc3Cl)c(=O)[nH]2)C1 (stereo not given)	inconclusive: 2.82 µM [inhibitor, full curve, poor fit]	
CCCOc1ccc(-c2nc(N3CCN(C)CC3)c3ccccc3n2)cc1	inconclusive: 11.2 µM [inhibitor, single point]	
CCCC(O)(CCC)C(=O)NN(C(=O)CCl)c1ccccc1	inconclusive: 4.47 µM [inhibitor, partial curve, poor fit]	
Cc1nn(CC(=O)Nc2ccc3nc4n(c(=O)c3c2)CCCC4)c(C)c1[N+](=O)[O-]		inactive: 6%
CN(C)S(=O)(=O)c1ccc(N2CCCC2)c(C(=O)Nc2nccs2)c1	inconclusive: 14.1 µM [inhibitor, single point]	
CCCn1nc(NC(=O)CC)c2cc3cccc(C)c3nc21	inconclusive: 12.6 µM [inhibitor, single point]	
Cc1cccc(C)c1OC(=O)C(c1ccccc1)c1ccccc1	inconclusive: 0.398 µM [inhibitor, partial curve, poor fit]	
C[C@@]12C(=O)Nc3ccc(Cl)cc3C(=O)N1[C@H]1c3ccccc3OC[C@@H]1[C@@H]2c1ccccc1	inconclusive: 28.2 µM [inhibitor, single point]	
N#C[C@@H]1N(Cc2ccccc2)C(=O)[C@H]2CC3C=CC21O3 (stereo not given in full)	inconclusive: 1 µM [inhibitor, partial curve, poor fit]	
CCN1CCN(C2=C(NS(=O)(=O)c3ccccc3)C(=O)c3ccccc3C2=O)CC1	inconclusive: 7.08 µM [inhibitor, partial curve, poor fit]	
CCC(CO)Oc1cc(NC(=O)c2ccccc2C)c2ncn(C(C)C)c2c1 (stereo not given)	inconclusive: 2.82 µM [inhibitor, full curve, poor fit]	
O=C1S/C(=C\c2ccc(O)c([N+](=O)[O-])c2)C(=O)N1c1ccccc1Cl	inconclusive: 10 µM [inhibitor, partial curve, poor fit]	
O=C1NC(c2cccc([N+](=O)[O-])c2)=CCN1c1ccccc1O	inconclusive: 1 µM [inhibitor, full curve, poor fit]	

SMILES	Potency	activity change, negative = inhibition
Cc1ccc(C2CC(=O)C=C(O)C2)cc1 (stereo not given)		inactive: 1.02%
CCCCN(C(=O)CSc1nn(-c2ccc(F)cc2)c(=S)s1)c1c(N)n(CCCC)c(=O)[nH]c1=O		inactive: 2.1%
COc1ccc(C(=O)Nc2ccccc2C(=O)Nc2cccc(C)n2)cc1	inconclusive: 3.16 µM [inhibitor, partial curve]	
CC(=O)Nc1ccc(S(=O)(=O)Nc2ccccc2C(=O)NCc2cccnc2)cc1		inactive: 0.623%
COc1ccc(CCNC(=O)C2CC=CCC2C(=O)O)cc1 (stereo not given)	inconclusive: 28.2 µM [inhibitor, single point]	
COc1ccc(N(C)S(=O)(=O)c2cccc(C(=O)OCC(=O)c3c(N)n(C)c(=O)n(C)c3=O)c2)cc1	inconclusive: 12.6 µM [inhibitor, single point]	
Cc1ccc2cc(C#N)c(NCCNC(=S)NCCCN(C)C)nc2c1C	active: 10 µM	
Cc1ccc(-n2c(C)cc(C(=O)CSc3nnc4ccccn34)c2C)cc1	inconclusive: 7.94 µM [inhibitor, partial curve, poor fit]	
FC(F)(F)Oc1ccc(Nc2nc(N3CCOCC3)nc(N3CCOCC3)n2)cc1		inactive: 26.5%
Cc1cccc(NC(=O)c2ccc([N+](=O)[O-])s2)c1C	inconclusive: 25.1 µM [inhibitor, single point]	
CCOC(=O)c1c(CSc2ccccc2)n(C)c2ccc(O)c(CN3CCN(C)CC3)c12	inconclusive: 25.1 µM [inhibitor, single point]	
CCCCCCC(=O)N1C/C=C\C(c2ccc(OC)cc2)N(Cc2ccc(F)cc2)C(=O)[C@H]1Cc1ccccc1 (stereo not given in full)	inconclusive: 28.2 µM [inhibitor, single point]	
CCCS(=O)(=O)c1c(S(=O)(=O)CCC)c2c(C(N)=O)cccn2c1C(=O)c1ccc(F)cc1	inconclusive: 3.16 µM [inhibitor, partial curve, poor fit]	
CCN(CC)CCCNC(=O)CCc1c(C)n(CC)c2cc(-c3ccccc3OC)nn2c1=O		inactive: 1.2%
Oc1c(Cl)cc(CN2CCOCC2)c2cccnc12	inconclusive: 14.1 µM [inhibitor, partial curve, poor fit]	
O=c1[nH]c(=O)c2nc3c4ccccc4c4ccccc4c3nc2[nH]1		inactive: -5.49%
Oc1c(Br)cc(Br)cc1CNc1cccc2cccnc12	inconclusive: 11.2 µM [inhibitor, single point]	
O=C1CCC(=O)N1c1ccc(S(=O)(=O)N2CCCC2)cc1		inactive: -9.9%
COc1ccc(CSc2nc3ccccc3c(=O)n2CCCN2CCOCC2)cc1F		inactive: -5.48%
Cc1nc(NCCC(C)C)c2nnn(Cc3ccccc3)c2n1	inconclusive: 2.24 µM [inhibitor, single point]	
O=C(Nc1ccccc1C(=O)NCc1ccco1)Nc1cccc2ccccc12	inconclusive: 3.55 µM [inhibitor, partial curve, poor fit]	
